Among all 320,000 compounds or so, about 2,100 (0.66%) were called active. This list was built around the results that the source calls inconclusive (neither active nor inactive); the mix of calls is not that of the screen. The call rests on the fitted dose curve; in most records, active means well fitted inhibition curve with a large enough effect in the signal ratio, with a control signal flat (not every such curve was filed as active); inconclusive means small, poorly fitted or top-dose-only effect, or effect the other way, or a change in a side signal; inactive means flat fitted curve, though single readings scatter; the % refers to the signal ratio. Potencies of inconclusive entries are doubtful fits and often do not repeat.
Experiment: qHTS Assay for Lipid Storage Modulators in Drosophila S3 Cells
Conditions: BODIPY lipid droplet fluorescence, 18-24 h, cells fed with added oleic acid; lipid storage change, negative = inhibition: at 46.1 µM (top of the series) unless noted
Method in brief: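 Laser-scanning cytometry quantifies lipid droplet accumulation (500–530 nm total intensity; droplet/cell object ratio) in oleic acid-fed (400 uM added) Drosophila S3 cells treated with a concentration series. 20 uM Triacsin C defined 100% inhibition.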
On the % scale 0 is the no-effect control and ±100 the full control effect; potency means the concentration at half of the fitted maximal effect.

Structure (SMILES)	lipid storage change, negative = inhibition	Potency
CN1CCN(C(=O)c2cc3c(n(-c4ccccc4)c2=O)CC(C)(C)CC3=O)CC1	inconclusive: -7.05%	
Cc1ccc2c(CC(=O)OCc3nc(N)nc(Nc4ccccc4C)n3)coc2c1		inconclusive: 0.0731 µM [activator, full curve, poor fit]
O=C(C1=C[C@H](c2coc3ccccc3c2=O)C[C@H](OCc2ccc(CO)cc2)O1)N1CCN(Cc2ccccc2)CC1	inconclusive: -0.559%	
COc1ccccc1-n1c(SCC(=O)Nc2ccc(C)cc2)nc(O)cc1=O	inconclusive: 5.6%	
Cc1cc2c(NC(=O)Nc3ccc(C(F)(F)F)cc3)cccc2nn1	inconclusive: -7.29%	
O=C(CN1CCCC1c1ccc2c(c1)OCCO2)NC(=O)Nc1ccccc1 (stereo not given)		inconclusive: 0.58 µM [falling, single point]
CC(C)CNC(=O)c1cccc(NC(=O)COc2ccc([N+](=O)[O-])cc2)c1	inconclusive: -1.41%	
Cc1ccc(S(=O)(=O)C2(C(=O)N3CCN(c4cc(C)ccc4C)CC3)CC2)cc1	inactive	
CC1(C)OC(C)(C)/C(=C/Nc2ccccc2)C1=O	inconclusive: 6.64%	
CN1CCCC1CCNc1ccc2oc3ccccc3c(=O)c2c1 (stereo not given)		inconclusive: 25.9 µM [activator, single point]
Cc1cc(OCCn2cc(/C(N)=N/O)c3ccccc32)ccc1Cl		inconclusive: 18.4 µM [falling, single point]
COc1ccc(S(=O)(=O)/N=C2\C=C(Nc3ccc(O)cc3)C(=O)c3ccccc32)cc1		inconclusive: 0.651 µM [falling, partial curve, poor fit]
Cc1ccc(OCC(=O)Oc2c(C)cccc2C)cc1C	inconclusive: -5.46%	
Cc1ccc(SC(C)C(=O)Nc2c(C)n(C)n(-c3ccccc3)c2=O)cc1 (stereo not given)	inactive	
Cc1csc(CNc2ncnc3ccc(-c4cccc(Cl)c4)cc23)c1	inconclusive: 30.5%	
Cc1oc(-c2ccccc2)nc1CS(=O)CC(=O)NC1CCCC1 (stereo not given)		inconclusive: 29.1 µM [activator, single point]
CC(OC(=O)/C(C#N)=C/c1ccc(N(C)C)cc1)C(=O)N(C)c1ccccc1 (stereo not given)	inconclusive: -100%	
Cc1ccc(S(=O)(=O)N2CCCCC2)cc1NC(=O)c1ccccn1	inconclusive: 7.37%	
O=C(O)CCCCNS(=O)(=O)/C=C/c1ccccc1	inconclusive: -59.9%	
O=c1c2cc(NC(=S)NCCCN3CCC(Cc4ccccc4)CC3)ccc2nc2n1CCCCC2	inconclusive: 6.53%	
CC(NCCS(=O)(=O)c1ccc(Cl)cc1)c1cccc(Cl)c1 (stereo not given)	inconclusive: 277%	
O=C(CN(CCc1ccccc1)C(=O)c1csnn1)NC1CCCC1	inconclusive: -20.9%	
O=C(OCC(=O)N1CCCC1)c1cccc(Br)c1	inconclusive: 386%	
O=C(CN1C(=O)NC2(CCCCCCC2)C1=O)Nc1ccc(Br)cc1		inconclusive: 0.0073 µM [falling, full curve, poor fit]
COc1ccc(NC(=O)COc2ccc3c(c2)CCC3)cc1		active: 8.2 µM

Structure (SMILES)	lipid storage change, negative = inhibition	Potency
Cc1ccc(C(=O)CC(c2cccs2)S(=O)(=O)c2ccc(C)cc2)cc1 (stereo not given)	inconclusive: 8.71%	
CCOc1ccc(OCC)c(NC(=O)CN2CCC(NC(=O)c3cccc(F)c3)CC2)c1	inconclusive: 112%	
Cc1cccc(C)c1Oc1nc(-c2ccccc2)ncc1S(=O)(=O)c1ccccc1	inconclusive: 43.3%	
CN(CC(=O)Nc1cccc(F)c1)C(=O)c1cn2ccccc2n1	inconclusive: 22.8%	
COC(/C=C/Nc1ccc(Cl)cc1)=C(C#N)C#N	inconclusive: -79.5%	
COc1ccc(NC(=O)CN(C)C(C)C(=O)NC(=O)NC2CCCCC2)cc1 (stereo not given)		inconclusive: 4.61 µM [activator, single point]
CCC(C)NC(=O)c1ccccc1-c1ccccc1C(=O)NC(C)CC (stereo not given)	inconclusive: -25.7%	
CCCc1nc2oc3cc(OC)ccc3c(=O)c2c(=O)n1Cc1ccco1		inconclusive: 1.84 µM [activator, partial curve]
CCC(CC)C(=O)Nc1c2c(nn1-c1ccc(OC)cc1)CS(=O)C2 (stereo not given)	inconclusive: -0.974%	
S=C(NCCc1ccccc1)N1CCc2ccccc2C1	inconclusive: -13.4% [at 9.22 µM]	
O=C(Cn1cnc2ccccc2c1=O)Nc1ccc(S(=O)(=O)N2CCCC2)cc1	inconclusive: 5.2%	
Cc1cc(C)n(C(=O)CCCC(=O)n2nc(C)cc2C)n1	inactive	
CCOC(=O)c1ccc(NC(=O)CSc2nnc(-c3ccncc3)n2C)cc1	inactive	
C=C(C)CN(CC)C(=O)CCc1nnc(CCCc2ccccc2)o1	inconclusive: 1.51%	
CCCCc1ccc(S(=O)(=O)N2CCN(C(=O)c3ccco3)CC2)cc1	inconclusive: -7.65%	
CCCC(=O)Nc1ccccc1NC(=O)c1ccc(OCC)c(OCC)c1	inconclusive: 28.9% [at 9.22 µM]	
Cc1cc2nccc(-c3ccc(Cl)cc3Cl)n2n1	inconclusive: 18.6%	
COC(=O)c1ccc2c(c1)NC(=O)C(N1CCCCC1)S2 (stereo not given)	inconclusive: -34.2% [at 0.0737 µM]	
CCN1C(=O)[C@H]2[C@@H](c3ccc(-c4ccc(F)cc4)c(OC)c3)N3CCC[C@@]3(C(=O)OC)[C@H]2C1=O	inconclusive: -70.6%	
COc1ccc(/C=C/C(=O)NC(=S)N2CCN(c3ccccc3OC)CC2)cc1		inconclusive: 0.0517 µM [activator, full curve, poor fit]
CC(C)CCNC(=O)C(c1ccc(O)cc1)N(Cc1cccs1)C(=O)C1COc2ccccc2O1 (stereo not given)		inconclusive: 14.6 µM [activator, single point]
Cc1ccnc(NC(=O)CCC(=O)N(CC(=O)NCc2ccccc2)Cc2ccc(F)cc2)c1		inconclusive: 1.3 µM [falling, full curve, poor fit]
CCn1c(SCC(=O)c2ccccc2)nc2c(c1=O)SC(C)C2 (stereo not given)	inactive	
CN(c1ccccc1C(=O)NCc1ccccc1Cl)S(=O)(=O)c1ccccc1		inconclusive: 0.0073 µM [falling, full curve, poor fit]
Fc1ccc(-c2nnc(Cc3nnc(-c4ccc(F)cc4)o3)o2)cc1		inconclusive: 20.6 µM [activator, single point]

Retrieved by structure from above (5):
Structure (SMILES)	lipid storage change, negative = inhibition	Potency
Cc1ccnc(NC(=O)CCC(=O)N(CC(=O)NCc2ccccc2)Cc2ccc(F)cc2)c1		inconclusive: 1.3 µM [falling, full curve, poor fit]
CCn1c(SCC(=O)c2ccccc2)nc2c(c1=O)SC(C)C2 (stereo not given)	inactive	
CCOc1ccc(OCC)c(NC(=O)CN2CCC(NC(=O)c3cccc(F)c3)CC2)c1	inconclusive: 112%	
O=C(CN1CCCC1c1ccc2c(c1)OCCO2)NC(=O)Nc1ccccc1 (stereo not given)		inconclusive: 0.58 µM [falling, single point]
COC(=O)c1ccc2c(c1)NC(=O)C(N1CCCCC1)S2 (stereo not given)	inconclusive: -34.2% [at 0.0737 µM]	

Following part.

Structure (SMILES)	lipid storage change, negative = inhibition	Potency
CCOC(=O)C1CCN(C(=O)CN(c2cc(OC)ccc2OC)S(=O)(=O)c2ccccc2)CC1	inconclusive: 41.8%	
C/C(=N\NC(=O)c1ccoc1C)c1ccc(Cl)s1	inconclusive: 103%	
Cc1ccc(Cl)cc1NC(=O)Cn1cc2c(n1)CCCC2		inconclusive: 13 µM [activator, partial curve]
c1csc(Cn2nnnc2CN2CCN(c3nc4ccccc4s3)CC2)c1		inconclusive: 29.1 µM [activator, single point]
N=c1c(C(=O)NCc2ccco2)cc2c(=O)n3ccccc3nc2n1C1CCCC1		active: 0.651 µM
CC(=O)c1cc(NC(=O)c2ccc(C)cc2)c(=O)oc1/C=C/N(C)C	inconclusive: 9.35%	
O=C(NCCCN1CCOCC1)c1cc(-c2ccc(F)cc2)no1	inconclusive: 38.3%	
CCC1=NN(C(=O)Cc2ccc(OC)cc2)C(O)(C(F)(F)F)C1 (stereo not given)		inconclusive: 29.1 µM [rising, single point]
O=c1[nH]c2ccccc2nc1Cc1ccccc1	inactive	
CC(C)COC(=O)N1C[C@H](O)C[C@H]1C(=O)Nc1ccc(Cl)cc1	inconclusive: 13.8%	
CCOC(=O)c1c(C)[nH]c(C(=O)OCC(=O)Nc2cc(C)ccc2OC)c1C		inconclusive: 8.2 µM [activator, partial curve, poor fit]
O=C(c1ccccc1)N1CCCc2ccccc21	inactive	
CCCNC(=O)c1onc(CSc2ccccc2)c1C(=O)NCCC		inconclusive: 5.17 µM [falling, partial curve]
COc1ccc(CNc2ncc(-c3ccccc3)n2C)cc1	inconclusive: -35.1%	
COc1ccc(CNC(=S)N2CCN(Cc3ccccc3)CC2)cc1	inconclusive: 4.94%	
S=c1[nH]nc(-c2ccccc2Br)n1Cc1ccccc1		inconclusive: 0.731 µM [falling, partial curve, poor fit]
CC1C/C(=C/c2cccs2)C(=O)/C(=C/c2cccs2)C1 (stereo not given)	inactive	
COc1cccc(C2NC(=O)NC(O)(C(F)(F)F)C2C(=O)c2cccnc2)c1OC (stereo not given)		inconclusive: 0.651 µM [falling, full curve]
O=C(Nc1ccc2oc(-c3ccccc3)nc2c1)c1ccco1		inconclusive: 0.116 µM [activator, full curve, poor fit]
COc1ccc(NC(=O)c2cccc(N3C(=O)C4C5CCC(C5)C4C3=O)c2)cc1 (stereo not given)	inconclusive: -40.2%	
COc1ccc(N2CCN(CCCNC(=O)c3cc4sccc4n3C)CC2)cc1	inconclusive: 19.6%	
CC1CCCCC1NC(=O)C1CCCN(S(=O)(=O)c2ccc(-n3cnnn3)cc2)C1 (stereo not given)	inconclusive: 19.3%	
CCN1C(=O)[C@H]2[C@@H](c3ccc(-c4ccc(Cl)c(Cl)c4)c(OC)c3)N[C@@](Cc3ccccc3)(C(=O)OC)[C@H]2C1=O		inconclusive: 3.26 µM [falling, partial curve]
COc1ccc(S(=O)(=O)N2CCCCC2)cc1NC(=O)CCCOc1ccc(C)cc1		inconclusive: 29.1 µM [falling, single point]
COc1ccc(CN(Cc2cccn2C)S(=O)(=O)c2ccc(C)cc2)cc1		inconclusive: 2.59 µM [activator, full curve]

— PubChem BioAssay AID2685 (National Center for Advancing Translational Sciences (NCATS), 2010)
